Data published in patent US20040157227A1, “Reproductive cancer diagnosis and therapy” (priority 2001, published 2004).

B1: ghrelin (peptide)
peptide: GSSFLSPEHQRVQQRKESKKPPAKLQPRALAGWLRPEDGGQAEGAEDELEVRFNAPFDVGIKLSGVQYQQHSQALGKFLQDILWEEAKEAPADK
notes: endogenous ligand for the GHS-R, a 28 amino acid peptide
B2: Exon 3-deleted ghrelin (protein)
chain: GSSFLSPEHQRVQQRKESKKPPAKLQPRALAGWLRPEDGGQAEGAEDELEVRRPQPTSDRPQALLTSL

Tests used:
Parameters in all cases: species or system human; key: absence of staining=−; mild staining=+; moderate staining=++; strong staining=+++; very strong staining=++++; strongest staining=+++++
Normal prostate = assay: Immunohistochemical staining of normal prostate tissue
Experimental: (§1) Immunohistochemistry was performed using cultured cell lines and both normal and cancer histological sections (breast, prostate, endometrium, placenta, ovary). Immunohistochemistry was performed using our antibodies to GHSR1a, 1b, ghrelin and the exon 3-deleted form of proghrelin.
(§2) Immunohistochemistry was performed on human sections using an Envision Plus DAB anti-rabbit immunostaining kit (Dako, USA) according to the manufacturer's instructions. Negative controls included the substitution of immune serum with 0.01M PBS 1% BSA and also preabsorption of the antibody with 1 mg/ml peptide overnight at 4° C. Positive controls consisted of pituitary sections for GHSR 1a and 1b (Peterborough) and human stomach for ghrelin (Peterborough). Sections were counterstained with haematoxylin.

Normal breast = assay: Immunohistochemical staining of normal breast tissue
Experimental: as §1, §2

Prostate cancer = assay: Immunohistochemical staining of prostate cancer tissue
Experimental: as §1, §2

Breast cancer = assay: Immunohistochemical staining of breast cancer tissue
Experimental: as §1, §2

Molecule	immunohistochemical staining, relative level of expression (Normal prostate)	immunohistochemical staining, relative level of expression (Normal breast)	immunohistochemical staining, relative level of expression (Prostate cancer)	immunohistochemical staining, relative level of expression (Breast cancer)
B1	+	+	++++	+++
B2	+	++	+++++	+++++
